Some of the results follow. The data scatter; read single values as rough.
Compound: ClCC(=O)N[C@@H]1CCCc2ccccc12
Test: log2 mean competition ratio of IA-DTB cysteine labelling (DMSO/compound) (log2 ratio); higher = stronger cysteine engagement by compound
Conditions: 50 µM; treatment time: 4 h; cell line lysate: HEK293T
Description: (§1)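 IA-DTB competitive cysteine chemoproteomics in HEK293T RIPA lysate. Lysates were treated with compound 29 or 30 at 50 or 200 µM for 4 h, then IA-DTB (500 µM, 1 h), trypsin-digested, NeutrAvidin-enriched and analysed by diaPASEF. Competition ratio = intensity DMSO / intensity compound (n=4 treated, n=64 DMSO); binding: mean log2 CR ≥ 1 and p ≤ 0.05 plus QC filters. Target is the cysteine site.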

Amino acid sequences for entries named in this document (tags omitted). A change or cut given only in a name is not applied to a line headed by its entry. Residues count along the entry.
UniProt Q9NRL2: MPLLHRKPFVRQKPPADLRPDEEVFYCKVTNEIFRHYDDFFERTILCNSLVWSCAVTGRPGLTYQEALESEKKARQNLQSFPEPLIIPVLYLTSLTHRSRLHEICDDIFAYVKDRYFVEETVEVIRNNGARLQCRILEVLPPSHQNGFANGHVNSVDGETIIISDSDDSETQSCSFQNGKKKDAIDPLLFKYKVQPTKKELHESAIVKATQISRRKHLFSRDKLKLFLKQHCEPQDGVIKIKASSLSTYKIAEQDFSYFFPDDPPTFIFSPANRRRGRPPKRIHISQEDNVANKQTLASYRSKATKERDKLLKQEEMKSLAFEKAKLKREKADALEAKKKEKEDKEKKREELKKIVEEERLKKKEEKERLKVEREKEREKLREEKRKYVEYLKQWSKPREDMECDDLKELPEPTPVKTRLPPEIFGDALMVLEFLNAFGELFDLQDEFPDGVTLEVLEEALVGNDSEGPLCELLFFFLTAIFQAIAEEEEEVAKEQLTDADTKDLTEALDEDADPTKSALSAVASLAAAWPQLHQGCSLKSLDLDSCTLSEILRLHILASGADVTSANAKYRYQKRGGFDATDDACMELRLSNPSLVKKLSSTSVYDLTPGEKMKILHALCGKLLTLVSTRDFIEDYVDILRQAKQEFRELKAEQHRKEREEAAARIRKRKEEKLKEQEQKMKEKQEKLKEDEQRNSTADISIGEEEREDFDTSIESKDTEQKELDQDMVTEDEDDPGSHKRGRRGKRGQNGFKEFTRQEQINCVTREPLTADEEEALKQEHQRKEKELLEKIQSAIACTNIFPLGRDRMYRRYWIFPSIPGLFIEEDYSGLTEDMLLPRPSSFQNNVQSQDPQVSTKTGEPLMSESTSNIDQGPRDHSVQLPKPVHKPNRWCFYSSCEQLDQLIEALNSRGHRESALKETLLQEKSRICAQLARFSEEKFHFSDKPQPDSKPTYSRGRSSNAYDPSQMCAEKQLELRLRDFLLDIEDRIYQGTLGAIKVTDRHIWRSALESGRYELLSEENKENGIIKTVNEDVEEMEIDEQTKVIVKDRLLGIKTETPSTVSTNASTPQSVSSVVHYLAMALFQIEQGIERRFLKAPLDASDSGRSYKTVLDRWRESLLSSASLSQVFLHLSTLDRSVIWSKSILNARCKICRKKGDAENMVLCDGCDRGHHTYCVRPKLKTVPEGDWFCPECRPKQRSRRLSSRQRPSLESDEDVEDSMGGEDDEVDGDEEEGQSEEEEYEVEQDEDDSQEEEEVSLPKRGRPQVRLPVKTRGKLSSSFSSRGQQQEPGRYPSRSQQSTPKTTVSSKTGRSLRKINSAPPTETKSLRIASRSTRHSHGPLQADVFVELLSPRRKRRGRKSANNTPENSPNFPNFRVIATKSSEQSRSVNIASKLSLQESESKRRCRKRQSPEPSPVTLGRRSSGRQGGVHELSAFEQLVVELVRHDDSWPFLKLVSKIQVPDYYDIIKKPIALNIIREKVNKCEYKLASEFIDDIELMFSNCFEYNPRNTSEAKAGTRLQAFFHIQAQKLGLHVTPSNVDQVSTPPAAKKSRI
UniProt O95999: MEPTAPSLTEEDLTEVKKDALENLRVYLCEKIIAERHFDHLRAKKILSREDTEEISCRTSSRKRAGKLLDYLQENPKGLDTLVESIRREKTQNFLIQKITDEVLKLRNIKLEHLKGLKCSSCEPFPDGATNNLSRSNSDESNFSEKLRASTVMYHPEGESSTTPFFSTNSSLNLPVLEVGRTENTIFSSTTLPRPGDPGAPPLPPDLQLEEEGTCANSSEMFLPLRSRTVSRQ
UniProt P31939, 142-164: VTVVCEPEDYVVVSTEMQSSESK
UniProt Q9UBB4: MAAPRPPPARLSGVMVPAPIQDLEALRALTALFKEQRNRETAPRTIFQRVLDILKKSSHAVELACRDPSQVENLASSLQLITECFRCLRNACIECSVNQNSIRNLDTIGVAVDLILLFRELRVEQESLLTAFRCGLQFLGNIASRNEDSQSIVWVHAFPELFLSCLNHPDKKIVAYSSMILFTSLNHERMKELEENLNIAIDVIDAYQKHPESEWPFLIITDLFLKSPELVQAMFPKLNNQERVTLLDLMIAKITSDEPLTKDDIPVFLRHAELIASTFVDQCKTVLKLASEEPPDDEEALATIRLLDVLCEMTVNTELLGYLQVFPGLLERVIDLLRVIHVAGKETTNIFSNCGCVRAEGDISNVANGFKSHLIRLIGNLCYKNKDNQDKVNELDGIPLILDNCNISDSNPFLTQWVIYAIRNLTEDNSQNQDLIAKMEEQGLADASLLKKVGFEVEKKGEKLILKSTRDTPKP
UniProt Q9H2G9: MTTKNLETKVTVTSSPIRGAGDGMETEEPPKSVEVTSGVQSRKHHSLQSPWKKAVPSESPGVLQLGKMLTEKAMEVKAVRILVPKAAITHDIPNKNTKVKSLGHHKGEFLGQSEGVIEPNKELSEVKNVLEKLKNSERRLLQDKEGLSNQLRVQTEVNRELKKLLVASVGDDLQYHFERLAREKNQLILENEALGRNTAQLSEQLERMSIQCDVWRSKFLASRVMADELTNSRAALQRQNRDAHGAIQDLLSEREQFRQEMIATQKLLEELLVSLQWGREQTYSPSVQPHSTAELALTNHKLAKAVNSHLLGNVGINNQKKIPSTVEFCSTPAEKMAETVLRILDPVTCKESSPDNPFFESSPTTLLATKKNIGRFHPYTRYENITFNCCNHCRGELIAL
UniProt Q6PL18: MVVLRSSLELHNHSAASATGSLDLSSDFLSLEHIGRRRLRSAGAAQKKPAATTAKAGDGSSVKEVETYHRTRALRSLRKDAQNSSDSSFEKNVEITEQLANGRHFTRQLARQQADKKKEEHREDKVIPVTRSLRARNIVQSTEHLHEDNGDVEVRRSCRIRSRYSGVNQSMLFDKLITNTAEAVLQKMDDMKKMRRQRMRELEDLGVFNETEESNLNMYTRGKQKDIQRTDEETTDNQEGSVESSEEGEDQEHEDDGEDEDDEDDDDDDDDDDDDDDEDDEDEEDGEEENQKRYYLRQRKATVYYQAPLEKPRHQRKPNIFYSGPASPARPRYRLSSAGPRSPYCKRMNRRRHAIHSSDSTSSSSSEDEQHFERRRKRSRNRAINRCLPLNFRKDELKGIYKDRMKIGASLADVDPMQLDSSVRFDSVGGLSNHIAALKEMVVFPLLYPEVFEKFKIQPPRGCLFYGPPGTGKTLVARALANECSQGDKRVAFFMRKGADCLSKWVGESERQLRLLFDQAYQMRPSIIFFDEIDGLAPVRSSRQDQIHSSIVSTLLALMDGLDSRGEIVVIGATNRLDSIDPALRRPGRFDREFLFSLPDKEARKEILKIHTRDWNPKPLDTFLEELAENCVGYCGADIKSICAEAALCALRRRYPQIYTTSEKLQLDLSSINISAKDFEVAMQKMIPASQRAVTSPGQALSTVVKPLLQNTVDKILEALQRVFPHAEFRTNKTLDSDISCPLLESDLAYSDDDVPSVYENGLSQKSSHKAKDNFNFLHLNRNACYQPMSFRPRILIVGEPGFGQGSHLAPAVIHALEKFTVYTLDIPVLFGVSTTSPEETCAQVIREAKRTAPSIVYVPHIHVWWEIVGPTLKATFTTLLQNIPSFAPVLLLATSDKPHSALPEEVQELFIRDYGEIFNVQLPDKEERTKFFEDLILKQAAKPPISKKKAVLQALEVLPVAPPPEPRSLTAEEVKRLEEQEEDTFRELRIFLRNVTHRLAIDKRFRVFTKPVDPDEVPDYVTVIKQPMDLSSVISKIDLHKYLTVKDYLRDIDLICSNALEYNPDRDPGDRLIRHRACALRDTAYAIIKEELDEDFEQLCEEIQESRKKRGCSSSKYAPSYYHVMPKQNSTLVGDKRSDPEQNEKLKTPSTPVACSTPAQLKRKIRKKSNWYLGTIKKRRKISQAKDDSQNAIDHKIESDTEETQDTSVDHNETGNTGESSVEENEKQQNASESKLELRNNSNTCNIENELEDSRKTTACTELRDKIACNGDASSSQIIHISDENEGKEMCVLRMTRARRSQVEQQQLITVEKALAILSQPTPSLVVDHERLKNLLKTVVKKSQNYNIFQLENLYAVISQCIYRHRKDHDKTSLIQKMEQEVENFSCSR
UniProt Q96GD4: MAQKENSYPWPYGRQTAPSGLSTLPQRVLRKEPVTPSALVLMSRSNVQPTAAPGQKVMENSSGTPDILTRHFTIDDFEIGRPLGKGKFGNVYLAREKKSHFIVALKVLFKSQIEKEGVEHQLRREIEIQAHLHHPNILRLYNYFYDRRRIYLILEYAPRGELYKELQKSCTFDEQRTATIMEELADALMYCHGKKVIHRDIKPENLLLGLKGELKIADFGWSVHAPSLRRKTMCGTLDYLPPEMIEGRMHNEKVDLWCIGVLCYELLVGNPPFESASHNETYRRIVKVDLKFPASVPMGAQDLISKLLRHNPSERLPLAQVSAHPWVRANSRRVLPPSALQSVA
UniProt Q14457, whole entry, looked up: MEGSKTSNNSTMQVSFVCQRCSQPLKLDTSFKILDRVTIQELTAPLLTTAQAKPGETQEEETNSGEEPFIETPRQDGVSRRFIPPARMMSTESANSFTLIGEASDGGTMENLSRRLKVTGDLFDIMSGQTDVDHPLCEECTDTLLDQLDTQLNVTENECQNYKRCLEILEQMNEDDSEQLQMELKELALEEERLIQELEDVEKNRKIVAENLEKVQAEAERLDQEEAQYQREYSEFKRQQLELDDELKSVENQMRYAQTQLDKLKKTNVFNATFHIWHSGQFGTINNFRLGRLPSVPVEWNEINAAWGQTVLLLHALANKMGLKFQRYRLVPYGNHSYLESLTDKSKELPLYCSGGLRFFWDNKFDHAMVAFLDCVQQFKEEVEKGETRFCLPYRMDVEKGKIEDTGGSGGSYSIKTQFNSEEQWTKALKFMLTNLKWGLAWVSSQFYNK
UniProt Q8TD16, 415-438: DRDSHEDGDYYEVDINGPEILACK
UniProt P11274, 235-254: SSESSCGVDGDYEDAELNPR
UniProt Q9UIG0: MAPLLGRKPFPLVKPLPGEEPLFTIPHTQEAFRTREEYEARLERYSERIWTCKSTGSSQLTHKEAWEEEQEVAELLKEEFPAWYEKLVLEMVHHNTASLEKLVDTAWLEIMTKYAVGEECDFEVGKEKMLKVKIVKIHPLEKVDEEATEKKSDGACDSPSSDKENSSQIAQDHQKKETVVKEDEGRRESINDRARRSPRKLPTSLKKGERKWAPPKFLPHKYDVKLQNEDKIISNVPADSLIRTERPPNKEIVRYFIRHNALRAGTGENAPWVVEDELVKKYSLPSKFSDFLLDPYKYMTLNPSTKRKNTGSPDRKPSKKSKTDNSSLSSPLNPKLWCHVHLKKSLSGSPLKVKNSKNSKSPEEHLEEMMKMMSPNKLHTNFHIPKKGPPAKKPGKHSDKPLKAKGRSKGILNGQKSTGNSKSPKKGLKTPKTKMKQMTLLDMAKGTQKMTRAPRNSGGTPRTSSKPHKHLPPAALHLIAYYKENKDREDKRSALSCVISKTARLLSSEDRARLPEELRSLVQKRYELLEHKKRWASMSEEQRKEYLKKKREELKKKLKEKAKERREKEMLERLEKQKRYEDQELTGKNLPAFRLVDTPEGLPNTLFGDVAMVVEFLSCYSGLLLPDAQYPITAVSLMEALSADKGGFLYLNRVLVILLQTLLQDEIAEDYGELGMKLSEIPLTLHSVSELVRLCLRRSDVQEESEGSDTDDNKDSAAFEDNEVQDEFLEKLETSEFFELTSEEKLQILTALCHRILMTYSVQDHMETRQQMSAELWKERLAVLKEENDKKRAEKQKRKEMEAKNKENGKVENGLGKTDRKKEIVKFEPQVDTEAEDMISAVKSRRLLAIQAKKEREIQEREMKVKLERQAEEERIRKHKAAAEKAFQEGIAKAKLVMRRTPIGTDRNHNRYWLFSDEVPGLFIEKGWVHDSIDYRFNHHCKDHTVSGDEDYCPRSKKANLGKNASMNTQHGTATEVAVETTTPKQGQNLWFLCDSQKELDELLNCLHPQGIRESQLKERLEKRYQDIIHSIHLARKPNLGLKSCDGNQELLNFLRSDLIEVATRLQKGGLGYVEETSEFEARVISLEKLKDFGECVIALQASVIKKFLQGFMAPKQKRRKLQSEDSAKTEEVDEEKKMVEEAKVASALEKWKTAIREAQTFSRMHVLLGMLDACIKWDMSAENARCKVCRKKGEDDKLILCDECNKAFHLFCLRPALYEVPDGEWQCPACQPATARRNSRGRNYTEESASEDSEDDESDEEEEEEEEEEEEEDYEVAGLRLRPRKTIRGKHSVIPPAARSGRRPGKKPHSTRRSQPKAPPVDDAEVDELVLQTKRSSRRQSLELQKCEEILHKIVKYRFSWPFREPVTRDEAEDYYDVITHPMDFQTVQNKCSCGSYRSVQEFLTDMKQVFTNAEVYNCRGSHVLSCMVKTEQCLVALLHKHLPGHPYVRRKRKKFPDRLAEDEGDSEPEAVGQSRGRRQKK

Target	log2 mean competition ratio
BAZ1A C764 (UniProt Q9NRL2)	-0.265
ATG14 C17 (UniProt Q6ZNE5)	0.204
BLM C396 (UniProt P54132)	-0.199
ASPM C3177 (UniProt Q8IZT6)	0.107
BCL10 C57 (UniProt O95999)	-0.178
ASXL2 C746 (UniProt Q76L83)	-0.0579
ATIC C146 (UniProt P31939)	-0.447
BCS1L C234	0.0938
BHLHE41 C203	-0.141

Same assay, conditions: 200 µM; treatment time: 4 h; cell line lysate: HEK293T

Target	log2 mean competition ratio
ATRX C1789 (UniProt P46100)	0.233
ATM C2704 (UniProt Q13315)	-0.226
ATXN10 C65 (UniProt Q9UBB4)	-0.165
ASXL2 C266 (UniProt Q76L83)	0.0225
BLZF1 C349 (UniProt Q9H2G9)	-0.00372
BMPR1A C503 (UniProt P36894)	0.238
AURKA C8 (UniProt O14965)	-0.0514
ATAD2 C484 (UniProt Q6PL18)	0.361
BAHD1 C598 (UniProt Q8TBE0)	0.0397
ATG4B C333 (UniProt Q9Y4P1)	-0.203
ATRIP C238 (UniProt Q8WXE1)	0.132
ATP2A2 C498 (UniProt P16615)	-0.0326
BAG5 C191 (UniProt Q9UL15)	0.0336
AURKB C234 (UniProt Q96GD4)	-0.0964
ATP6V1H C73 (UniProt Q9UI12)	0.28
BECN1 C353 (UniProt Q14457)	-0.298
BICD2 C437 (UniProt Q8TD16)	0.437
BDP1 C1299 (UniProt A6H8Y1)	-0.171

Target	log2 mean competition ratio
ATG7 C406 (UniProt O95352)	0.395
BCR C240 (UniProt P11274)	0.299
ATP13A3 C920 (UniProt Q9H7F0)	0.247
BCDIN3D C97 (UniProt Q7Z5W3)	0.362
ATG16L1 C506 (UniProt Q676U5)	-0.297
BAZ1B C497 (UniProt Q9UIG0)	0.264
BDP1 C689 (UniProt A6H8Y1)	-0.254
BMPR2 C496 (UniProt Q13873)	0.278
BBX C874 (UniProt Q8WY36)	0.186
BAZ1A C764 (UniProt Q9NRL2)	0.0536
ATG14 C17 (UniProt Q6ZNE5)	0.0153
BLM C396 (UniProt P54132)	0.151
ASPM C3177 (UniProt Q8IZT6)	-0.146
BCL10 C57 (UniProt O95999)	0.16
ASXL2 C746 (UniProt Q76L83)	-0.241
ATIC C146 (UniProt P31939)	-0.176
BCS1L C234	-0.133
BHLHE41 C203	-0.0473

Compound: ClCC(=O)N[C@H]1CCCc2ccccc12
Test: as above
Conditions: 50 µM; treatment time: 4 h; cell line lysate: HEK293T
Description: as §1

Target	log2 mean competition ratio
ATRX C1789 (UniProt P46100)	0.109
ATM C2704 (UniProt Q13315)	-0.0123
ATXN10 C65 (UniProt Q9UBB4)	0.128
ASXL2 C266 (UniProt Q76L83)	-0.213
BLZF1 C349 (UniProt Q9H2G9)	0.138
BMPR1A C503 (UniProt P36894)	-0.674
AURKA C8 (UniProt O14965)	0.133
ATAD2 C484 (UniProt Q6PL18)	-0.0257
BAHD1 C598 (UniProt Q8TBE0)	-0.652
ATG4B C333 (UniProt Q9Y4P1)	0.126
ATRIP C238 (UniProt Q8WXE1)	-0.29
ATP2A2 C498 (UniProt P16615)	-0.0166
BAG5 C191 (UniProt Q9UL15)	2.4e-05
AURKB C234 (UniProt Q96GD4)	0.101
ATP6V1H C73 (UniProt Q9UI12)	0.409
BECN1 C353 (UniProt Q14457)	-0.0657
BICD2 C437 (UniProt Q8TD16)	-0.203
BDP1 C1299 (UniProt A6H8Y1)	-0.0698

Target	log2 mean competition ratio
ATG7 C406 (UniProt O95352)	-0.357
BCR C240 (UniProt P11274)	0.0226
ATP13A3 C920 (UniProt Q9H7F0)	-0.003
BCDIN3D C97 (UniProt Q7Z5W3)	-0.287
ATG16L1 C506 (UniProt Q676U5)	0.345
BAZ1B C497 (UniProt Q9UIG0)	0.241
BDP1 C689 (UniProt A6H8Y1)	0.414
BMPR2 C496 (UniProt Q13873)	-0.372
BBX C874 (UniProt Q8WY36)	-0.104
BAZ1A C764 (UniProt Q9NRL2)	0.116
ATG14 C17 (UniProt Q6ZNE5)	0.261
BLM C396 (UniProt P54132)	-0.231
ASPM C3177 (UniProt Q8IZT6)	-0.0672
BCL10 C57 (UniProt O95999)	0.265
ASXL2 C746 (UniProt Q76L83)	0.374
ATIC C146 (UniProt P31939)	-0.00705
BCS1L C234	0.0238
BHLHE41 C203	-0.248

Same assay, conditions: 200 µM; treatment time: 4 h; cell line lysate: HEK293T

Target	log2 mean competition ratio
ATRX C1789 (UniProt P46100)	0.213
ATM C2704 (UniProt Q13315)	-0.00461
ATXN10 C65 (UniProt Q9UBB4)	-0.249
ASXL2 C266 (UniProt Q76L83)	0.0653
BLZF1 C349 (UniProt Q9H2G9)	0.0833
BMPR1A C503 (UniProt P36894)	-0.11
AURKA C8 (UniProt O14965)	0.261
ATAD2 C484 (UniProt Q6PL18)	0.111
BAHD1 C598 (UniProt Q8TBE0)	0.0224
ATG4B C333 (UniProt Q9Y4P1)	-0.192
ATRIP C238 (UniProt Q8WXE1)	0.225
ATP2A2 C498 (UniProt P16615)	-0.0852
BAG5 C191 (UniProt Q9UL15)	-0.0299
AURKB C234 (UniProt Q96GD4)	0.0978
ATP6V1H C73 (UniProt Q9UI12)	0.245
BECN1 C353 (UniProt Q14457)	-0.178
BICD2 C437 (UniProt Q8TD16)	0.104
BDP1 C1299 (UniProt A6H8Y1)	0.0603

Target	log2 mean competition ratio
ATG7 C406 (UniProt O95352)	0.516
BCR C240 (UniProt P11274)	0.228
ATP13A3 C920 (UniProt Q9H7F0)	0.23
BCDIN3D C97 (UniProt Q7Z5W3)	0.0534
ATG16L1 C506 (UniProt Q676U5)	-0.275
BAZ1B C497 (UniProt Q9UIG0)	0.221
BDP1 C689 (UniProt A6H8Y1)	0.0533
BMPR2 C496 (UniProt Q13873)	0.189
BBX C874 (UniProt Q8WY36)	0.0772
BAZ1A C764 (UniProt Q9NRL2)	0.223
ATG14 C17 (UniProt Q6ZNE5)	-0.0725
BLM C396 (UniProt P54132)	0.243
ASPM C3177 (UniProt Q8IZT6)	-0.0199
BCL10 C57 (UniProt O95999)	0.354
ASXL2 C746 (UniProt Q76L83)	-0.346
ATIC C146 (UniProt P31939)	0.00442
BCS1L C234	-0.0426
BHLHE41 C203	0.142
